Results are given in words; binding and its absence hold for the method and conditions named. Binding seen in cells or lysates may run through a third protein. Here binding means that the protein was enriched with, or labelled near, the bait; the list need not be complete.
Target: FAT10 (bait of the immunoprecipitation-mass spectrometry screen) (UniProt O15205)
Assay: affinity purification with mass spectrometry; immunoprecipitation of FAT10, mass spectrometry of associated proteins; cells not told

By UniProt entry, the sequences of proteins in these tests, tags left out.
UniProt O15205: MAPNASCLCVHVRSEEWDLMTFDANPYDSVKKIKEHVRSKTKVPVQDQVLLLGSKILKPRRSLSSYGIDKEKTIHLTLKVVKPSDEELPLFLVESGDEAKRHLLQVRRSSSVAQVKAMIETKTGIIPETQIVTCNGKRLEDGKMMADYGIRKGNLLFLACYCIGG
UniProt Q93009: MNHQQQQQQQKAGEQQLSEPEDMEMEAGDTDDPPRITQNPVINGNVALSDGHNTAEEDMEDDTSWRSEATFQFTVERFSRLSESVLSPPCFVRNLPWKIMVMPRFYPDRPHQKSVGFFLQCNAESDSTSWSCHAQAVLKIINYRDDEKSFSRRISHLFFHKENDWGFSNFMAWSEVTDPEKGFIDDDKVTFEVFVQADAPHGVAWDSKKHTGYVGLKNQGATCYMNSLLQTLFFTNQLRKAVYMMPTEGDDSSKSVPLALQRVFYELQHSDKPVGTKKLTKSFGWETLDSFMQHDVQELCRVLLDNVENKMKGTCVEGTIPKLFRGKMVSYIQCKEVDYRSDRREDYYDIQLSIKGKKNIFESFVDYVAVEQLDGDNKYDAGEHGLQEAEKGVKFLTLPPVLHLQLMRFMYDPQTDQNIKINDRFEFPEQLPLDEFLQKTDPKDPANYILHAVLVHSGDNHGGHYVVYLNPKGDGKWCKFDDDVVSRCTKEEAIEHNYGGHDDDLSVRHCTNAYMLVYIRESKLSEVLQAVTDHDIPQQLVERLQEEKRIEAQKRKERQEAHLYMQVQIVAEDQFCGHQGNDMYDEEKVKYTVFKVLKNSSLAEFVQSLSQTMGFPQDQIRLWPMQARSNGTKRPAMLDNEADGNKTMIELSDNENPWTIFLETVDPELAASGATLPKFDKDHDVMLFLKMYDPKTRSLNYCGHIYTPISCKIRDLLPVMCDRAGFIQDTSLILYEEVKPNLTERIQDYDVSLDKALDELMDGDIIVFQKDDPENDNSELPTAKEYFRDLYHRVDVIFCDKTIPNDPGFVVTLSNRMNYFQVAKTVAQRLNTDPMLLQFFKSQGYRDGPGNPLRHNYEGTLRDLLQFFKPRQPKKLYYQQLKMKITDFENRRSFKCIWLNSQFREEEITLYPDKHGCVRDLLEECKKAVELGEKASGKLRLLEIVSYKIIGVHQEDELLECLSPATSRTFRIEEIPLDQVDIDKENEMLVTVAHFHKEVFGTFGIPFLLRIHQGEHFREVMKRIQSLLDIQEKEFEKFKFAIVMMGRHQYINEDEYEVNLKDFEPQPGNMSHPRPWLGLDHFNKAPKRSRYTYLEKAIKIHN

USP7 (found in the FAT10 immunoprecipitation-mass spectrometry screen) (from UniProt Q93009 1-1102) (enzyme)
binding: binds

From publication PMC9550257
